The supplement of paper PMC12067093, “Discovery and optimisation of a covalent ligand for TRIM25 and its application to targeted protein ubiquitination” (Chemical Science, 2025)
The list shows a part of the results.

Chains of the proteins cited; added tags and fusions are not shown. Lines headed by an entry give the natural chain unless they say otherwise; changes in a name come on top.
UniProt O00635: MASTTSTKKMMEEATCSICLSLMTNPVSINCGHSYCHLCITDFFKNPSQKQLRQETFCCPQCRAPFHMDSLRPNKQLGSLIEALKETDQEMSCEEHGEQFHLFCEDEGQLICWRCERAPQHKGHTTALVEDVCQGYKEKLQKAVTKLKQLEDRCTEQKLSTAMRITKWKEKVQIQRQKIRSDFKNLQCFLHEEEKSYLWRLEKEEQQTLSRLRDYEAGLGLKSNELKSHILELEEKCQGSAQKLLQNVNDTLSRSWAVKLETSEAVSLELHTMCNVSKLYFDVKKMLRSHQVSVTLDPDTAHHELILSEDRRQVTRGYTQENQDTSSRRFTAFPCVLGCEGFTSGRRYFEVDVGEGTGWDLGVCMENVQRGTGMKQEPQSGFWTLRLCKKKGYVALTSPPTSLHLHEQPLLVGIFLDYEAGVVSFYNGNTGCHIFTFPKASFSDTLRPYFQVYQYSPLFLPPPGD
UniProt Q12931: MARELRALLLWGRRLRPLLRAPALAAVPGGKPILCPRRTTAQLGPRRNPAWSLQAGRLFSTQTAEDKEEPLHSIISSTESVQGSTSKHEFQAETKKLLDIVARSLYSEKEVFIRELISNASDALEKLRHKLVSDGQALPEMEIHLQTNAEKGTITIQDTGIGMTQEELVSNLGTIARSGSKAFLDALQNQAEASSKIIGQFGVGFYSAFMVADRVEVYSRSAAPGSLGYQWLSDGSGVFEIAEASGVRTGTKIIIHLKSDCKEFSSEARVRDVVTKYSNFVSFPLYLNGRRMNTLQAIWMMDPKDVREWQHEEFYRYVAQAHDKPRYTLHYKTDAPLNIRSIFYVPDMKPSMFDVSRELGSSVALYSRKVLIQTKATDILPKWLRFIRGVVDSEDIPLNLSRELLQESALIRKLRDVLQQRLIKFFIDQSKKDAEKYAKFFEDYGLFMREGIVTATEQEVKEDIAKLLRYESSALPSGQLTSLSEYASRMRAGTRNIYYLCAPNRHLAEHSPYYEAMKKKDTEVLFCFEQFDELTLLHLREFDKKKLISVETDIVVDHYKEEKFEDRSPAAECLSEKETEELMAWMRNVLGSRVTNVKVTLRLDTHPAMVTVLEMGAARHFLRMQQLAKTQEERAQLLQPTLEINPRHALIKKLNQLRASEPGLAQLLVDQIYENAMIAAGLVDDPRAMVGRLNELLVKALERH
UniProt Q7Z2T5: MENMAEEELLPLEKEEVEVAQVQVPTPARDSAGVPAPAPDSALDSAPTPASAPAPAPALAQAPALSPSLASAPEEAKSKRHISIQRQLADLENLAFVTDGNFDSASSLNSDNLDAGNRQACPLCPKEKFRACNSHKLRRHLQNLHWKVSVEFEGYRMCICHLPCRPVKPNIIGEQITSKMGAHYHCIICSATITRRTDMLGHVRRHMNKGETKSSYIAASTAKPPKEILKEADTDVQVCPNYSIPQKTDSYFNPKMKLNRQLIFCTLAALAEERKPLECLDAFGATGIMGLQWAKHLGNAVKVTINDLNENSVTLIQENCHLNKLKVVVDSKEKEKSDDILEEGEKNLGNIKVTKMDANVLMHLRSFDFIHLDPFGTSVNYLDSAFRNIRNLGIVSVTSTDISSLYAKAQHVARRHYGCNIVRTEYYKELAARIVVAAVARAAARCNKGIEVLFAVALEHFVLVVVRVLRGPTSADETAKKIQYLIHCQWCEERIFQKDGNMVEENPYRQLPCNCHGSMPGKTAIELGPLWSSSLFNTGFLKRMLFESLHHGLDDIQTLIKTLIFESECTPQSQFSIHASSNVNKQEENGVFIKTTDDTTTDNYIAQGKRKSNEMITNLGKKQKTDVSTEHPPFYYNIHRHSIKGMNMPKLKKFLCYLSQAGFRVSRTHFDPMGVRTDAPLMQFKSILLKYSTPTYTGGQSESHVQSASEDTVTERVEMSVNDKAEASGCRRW
UniProt Q86W33: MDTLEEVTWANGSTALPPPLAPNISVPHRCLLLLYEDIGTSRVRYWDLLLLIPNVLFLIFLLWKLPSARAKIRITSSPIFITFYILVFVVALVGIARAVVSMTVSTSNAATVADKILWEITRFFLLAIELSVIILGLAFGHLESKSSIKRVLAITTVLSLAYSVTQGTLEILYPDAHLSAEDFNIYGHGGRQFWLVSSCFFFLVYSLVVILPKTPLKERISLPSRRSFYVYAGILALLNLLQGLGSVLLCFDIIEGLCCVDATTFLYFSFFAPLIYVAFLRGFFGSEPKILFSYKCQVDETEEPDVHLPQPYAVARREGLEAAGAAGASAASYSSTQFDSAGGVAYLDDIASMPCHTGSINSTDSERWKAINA
UniProt Q9UPN9: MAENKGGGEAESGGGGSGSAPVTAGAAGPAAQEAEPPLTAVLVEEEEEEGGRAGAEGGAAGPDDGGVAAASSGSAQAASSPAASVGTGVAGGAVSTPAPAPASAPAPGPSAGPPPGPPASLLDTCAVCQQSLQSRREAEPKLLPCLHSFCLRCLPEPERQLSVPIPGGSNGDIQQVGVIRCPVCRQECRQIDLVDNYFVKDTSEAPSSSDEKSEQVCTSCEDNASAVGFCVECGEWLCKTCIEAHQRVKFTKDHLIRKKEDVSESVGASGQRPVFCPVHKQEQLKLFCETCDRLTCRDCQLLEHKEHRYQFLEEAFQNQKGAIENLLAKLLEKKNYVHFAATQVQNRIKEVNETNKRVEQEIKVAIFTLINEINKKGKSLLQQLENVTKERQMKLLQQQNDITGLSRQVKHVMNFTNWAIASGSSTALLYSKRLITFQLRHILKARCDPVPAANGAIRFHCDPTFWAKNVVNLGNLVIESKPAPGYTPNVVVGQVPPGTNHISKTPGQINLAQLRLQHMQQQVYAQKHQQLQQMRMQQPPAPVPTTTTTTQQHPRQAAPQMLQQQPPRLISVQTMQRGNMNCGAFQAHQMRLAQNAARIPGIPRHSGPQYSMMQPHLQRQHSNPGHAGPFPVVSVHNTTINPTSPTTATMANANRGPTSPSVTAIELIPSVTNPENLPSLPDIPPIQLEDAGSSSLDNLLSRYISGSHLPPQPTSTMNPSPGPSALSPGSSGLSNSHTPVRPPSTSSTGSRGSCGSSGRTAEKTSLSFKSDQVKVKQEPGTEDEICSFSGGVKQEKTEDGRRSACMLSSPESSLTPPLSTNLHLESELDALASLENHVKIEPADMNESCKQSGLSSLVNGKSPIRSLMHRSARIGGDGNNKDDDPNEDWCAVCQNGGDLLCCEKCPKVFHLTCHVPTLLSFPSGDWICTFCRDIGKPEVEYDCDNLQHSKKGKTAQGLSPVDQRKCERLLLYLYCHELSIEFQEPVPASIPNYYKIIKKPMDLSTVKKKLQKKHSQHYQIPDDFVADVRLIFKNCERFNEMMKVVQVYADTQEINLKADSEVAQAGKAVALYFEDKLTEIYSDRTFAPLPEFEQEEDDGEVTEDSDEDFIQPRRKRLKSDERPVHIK
UniProt O43715: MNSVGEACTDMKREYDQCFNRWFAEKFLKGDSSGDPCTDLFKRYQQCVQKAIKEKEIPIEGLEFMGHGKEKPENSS
UniProt A5PLN9: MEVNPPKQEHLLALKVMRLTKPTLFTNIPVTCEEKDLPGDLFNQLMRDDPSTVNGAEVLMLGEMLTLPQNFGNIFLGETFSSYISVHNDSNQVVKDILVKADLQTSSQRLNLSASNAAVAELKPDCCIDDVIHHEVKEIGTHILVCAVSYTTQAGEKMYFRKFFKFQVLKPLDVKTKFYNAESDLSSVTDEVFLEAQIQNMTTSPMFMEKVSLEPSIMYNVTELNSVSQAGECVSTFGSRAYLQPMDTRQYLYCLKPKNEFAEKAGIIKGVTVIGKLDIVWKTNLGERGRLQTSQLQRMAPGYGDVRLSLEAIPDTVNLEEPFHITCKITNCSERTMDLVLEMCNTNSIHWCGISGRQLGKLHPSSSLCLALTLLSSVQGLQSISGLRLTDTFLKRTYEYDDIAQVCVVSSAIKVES
UniProt Q4KMQ1: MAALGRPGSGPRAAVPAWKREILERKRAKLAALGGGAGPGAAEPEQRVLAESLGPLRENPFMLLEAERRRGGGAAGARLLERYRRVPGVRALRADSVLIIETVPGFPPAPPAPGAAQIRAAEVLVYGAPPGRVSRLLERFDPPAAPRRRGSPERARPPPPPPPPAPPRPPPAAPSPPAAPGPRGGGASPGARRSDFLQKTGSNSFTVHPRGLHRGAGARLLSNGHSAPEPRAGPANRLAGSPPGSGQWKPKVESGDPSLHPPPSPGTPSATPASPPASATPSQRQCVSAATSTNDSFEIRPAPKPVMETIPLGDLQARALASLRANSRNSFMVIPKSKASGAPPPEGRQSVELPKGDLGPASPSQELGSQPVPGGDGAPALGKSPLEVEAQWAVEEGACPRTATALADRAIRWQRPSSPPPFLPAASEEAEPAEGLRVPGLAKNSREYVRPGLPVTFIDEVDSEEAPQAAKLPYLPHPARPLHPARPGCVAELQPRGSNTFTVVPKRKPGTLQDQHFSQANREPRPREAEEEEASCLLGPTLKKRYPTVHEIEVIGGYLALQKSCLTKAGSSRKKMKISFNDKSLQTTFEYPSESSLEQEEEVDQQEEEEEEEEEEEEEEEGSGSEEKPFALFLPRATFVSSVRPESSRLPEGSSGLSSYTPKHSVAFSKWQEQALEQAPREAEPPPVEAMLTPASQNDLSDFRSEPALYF
UniProt Q8IZ69: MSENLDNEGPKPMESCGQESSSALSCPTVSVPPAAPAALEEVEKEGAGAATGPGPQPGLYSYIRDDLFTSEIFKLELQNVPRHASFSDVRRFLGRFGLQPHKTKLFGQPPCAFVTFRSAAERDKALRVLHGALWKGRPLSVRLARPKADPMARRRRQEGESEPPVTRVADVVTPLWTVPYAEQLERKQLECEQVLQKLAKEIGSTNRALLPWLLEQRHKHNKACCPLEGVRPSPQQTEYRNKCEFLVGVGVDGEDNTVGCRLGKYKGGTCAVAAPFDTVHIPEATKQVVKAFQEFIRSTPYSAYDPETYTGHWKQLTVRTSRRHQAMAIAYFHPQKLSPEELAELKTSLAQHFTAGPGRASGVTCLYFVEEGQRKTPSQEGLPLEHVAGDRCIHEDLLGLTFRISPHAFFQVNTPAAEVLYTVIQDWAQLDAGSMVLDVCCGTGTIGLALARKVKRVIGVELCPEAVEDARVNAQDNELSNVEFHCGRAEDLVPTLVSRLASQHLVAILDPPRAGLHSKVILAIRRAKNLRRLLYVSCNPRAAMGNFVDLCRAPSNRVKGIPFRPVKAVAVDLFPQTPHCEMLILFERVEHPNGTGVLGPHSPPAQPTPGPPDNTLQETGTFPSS
UniProt Q9Y4K3: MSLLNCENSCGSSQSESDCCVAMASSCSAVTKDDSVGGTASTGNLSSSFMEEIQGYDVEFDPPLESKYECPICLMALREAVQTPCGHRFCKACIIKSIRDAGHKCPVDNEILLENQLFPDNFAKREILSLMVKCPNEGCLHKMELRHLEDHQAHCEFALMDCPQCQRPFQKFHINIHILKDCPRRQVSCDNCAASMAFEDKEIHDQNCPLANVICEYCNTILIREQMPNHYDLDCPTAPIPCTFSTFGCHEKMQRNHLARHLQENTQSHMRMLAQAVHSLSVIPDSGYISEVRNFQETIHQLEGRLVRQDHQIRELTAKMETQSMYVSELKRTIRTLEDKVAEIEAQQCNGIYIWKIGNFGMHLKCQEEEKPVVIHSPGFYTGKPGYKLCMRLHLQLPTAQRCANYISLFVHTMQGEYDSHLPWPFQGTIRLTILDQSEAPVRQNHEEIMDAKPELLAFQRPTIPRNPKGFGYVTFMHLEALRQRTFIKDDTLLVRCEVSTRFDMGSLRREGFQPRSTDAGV
UniProt Q12933: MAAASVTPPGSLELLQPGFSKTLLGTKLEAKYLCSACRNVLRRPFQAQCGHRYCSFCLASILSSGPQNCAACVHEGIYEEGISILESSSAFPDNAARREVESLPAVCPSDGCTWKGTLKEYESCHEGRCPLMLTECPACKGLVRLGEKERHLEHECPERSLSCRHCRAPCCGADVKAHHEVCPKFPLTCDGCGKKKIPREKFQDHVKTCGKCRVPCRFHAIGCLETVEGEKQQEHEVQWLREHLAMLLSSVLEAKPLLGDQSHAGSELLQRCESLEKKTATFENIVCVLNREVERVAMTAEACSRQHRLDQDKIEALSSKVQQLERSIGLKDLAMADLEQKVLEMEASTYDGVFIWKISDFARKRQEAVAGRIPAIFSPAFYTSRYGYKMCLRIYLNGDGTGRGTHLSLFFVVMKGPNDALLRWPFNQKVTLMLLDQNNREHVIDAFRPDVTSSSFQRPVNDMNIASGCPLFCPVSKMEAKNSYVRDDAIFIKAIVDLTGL

Compound: Cc1cc(ccc1-c1ccccc1)C(=O)N1CCCN(CC1)C(=O)CCl [compound 10]
Assay: probe-labelled cysteine peptide fold change vs DMSO (competition) (log2 fold change); higher = less target engagement (more negative = stronger competition)
Details: 10 µM; THP-1; incubation time: 4 h
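Also: competitive profiling in live THP-1 cells: cysteine peptides tagged with an iodoacetamide desthiobiotin (IA-DTB) probe, intensity after compound treatment relative to DMSO-treated cells.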

Target	probe-labelled cysteine peptide fold change
TRIM25_Q14258_524_NNFCGVGICYGSMNR (UniProt Q14258)	-0.287
TRIM38_O00635_188_NLQCFLHEEEK (UniProt O00635)	-0.223
TRAP1_Q12931_501_NIYYLCAPNR (UniProt Q12931)	-0.0461
TRIOBP_Q9H2D6_2271_GFIASQGMGNGCGR (UniProt Q9H2D6)	-0.235
TRMT1L_Q7Z2T5_186_MGAHYHCIICSATITR (UniProt Q7Z2T5)	0.0705
TPRA1_Q86W33_296_CQVDETEEPDVHLPQPYAVAR (UniProt Q86W33)	-0.418
TRIM33_Q9UPN9_582_GNMNCGAFQAHQMR (UniProt Q9UPN9)	-0.217
TRIM24_O15164_246_DCQLLEHK (UniProt O15164)	0.103
TRIAP1_O43715_37_GDSSGDPCTDLFK (UniProt O43715)	-0.518
TRAPPC13_A5PLN9-4_326_ITNCSSER (UniProt A5PLN9)	0.153
TRIM36_Q9NQ86_48_ELFTHPLILPCQHSICHK (UniProt Q9NQ86)	0.0602
TPRN_Q4KMQ1_536_EAEEEEASCLLGPTLK (UniProt Q4KMQ1)	-0.022
TRMT1L_Q7Z2T5_656_FLCYLSQAGFR (UniProt Q7Z2T5)	-0.686
TRMT2A_Q8IZ69_243+260_CEFLVGVGVDGEDNTVGCR (UniProt Q8IZ69)	-0.214
TRAF6_Q9Y4K3_208_EIHDQNCPLANVICEYCNTILIR (UniProt Q9Y4K3)	0.343
TRAF2_Q12933_156_HLEHECPER (UniProt Q12933)	-0.0324

Copied from the list.
probe-labelled cysteine peptide fold change with TRAF6_Q9Y4K3_208_EIHDQNCPLANVICEYCNTILIR (UniProt Q9Y4K3) is entered as 0.343
probe-labelled cysteine peptide fold change with TPRA1_Q86W33_296_CQVDETEEPDVHLPQPYAVAR (UniProt Q86W33) is entered as -0.418
